For part of these data: At least one structure is not confirmed: it was looked up by name or label, or the drawing left a doubt. Some of these results come from one statement about several compounds together.
Columns and labels:
Flp-In T-REx-293 cells = assay: Tetracycline-inducible P-Tet TL reporter HDR and mutEJ assay with or without doxycycline; type: cell-based, human; conditions: ON vs OFF, 1 μg/ml doxycycline
Protocol: To ask if active transcription was required for the transcribed strand bias in HDR at nicks, derivatives of the TLTP and TLNT reporters were created in which a tetracycline-inducible (P-Tet) was substituted for the constitutive SFFV promoter upstream of GFP. TheseP-Tet TLTP and P-Tet TLNT reporters were stably integrated at the unique FRT site in Flp-In™ T-REx™-293 cells. Cells were cultured with (ON) or without (OFF) 1 μg/ml doxycycline, transfected with an I-AniI expression construct and the pCS14GFP plasmid dsDNA donor, and after 8-9 days of culture, doxycycline was added to the OFF cells to permit detection of HDR (GFP+) and mutEJ (mCherry+) events that had occurred in the absence of transcription. Active transcription increased the frequency of HDR at a transcribed-strand nick 2.5-fold, but reduced the frequency of HDR at a non-transcribed strand nick 4-fold (FIG. 9C). These opposing effects together accounted for the 8-fold greater frequency of HDR at a transcribed strand nick in a transcribed gene (FIG. 9B). […]
Flow cytometry. Cells were fixed in 2% formaldehyde and analyzed on an LSR II™ flow cytometer (Becton Dickinson, Franklin Lakes, N.J.). […]

293T-TL7TP cells = assay: Traffic Light (TL) reporter HDR (GFP+) flow assay, I-AniI nickase or cleavase, 293T-TL7TP clonal line; type: cell-based, human; conditions: FIG. 11A (siRAD51), FIGS. 18A-18B (RAD51K133R)
Description: Damage to the transcribed DNA strand is preferentially detected and repaired in transcription-coupled nucleotide excision repair^7, and transcribedstrand nicks can arrest transcriptional elongation in human cell extracts^8. […] Chromosomal repair targets were derived from the TL reporter^9. TLTP and […] reporters carry an I-AniI site oriented for nicking the transcribed or non-transcribed strand, respectively (FIGS. 1A and 5A-5E). HDR that replaces the I-AniI site and nonsense codons yields GFP+ cells (FIGS. 1B and 5A-5E). […] GFP+ cells among I-AniI-expressing (BFP+) cells were quantified 3 days later.
Flow cytometry data were analyzed using FlowJo™ (Tree Star, Ashland, Oreg.) flow cytometry analysis software and frequencies were transferred to Microsoft Excel™ in which statistical significance was determined by two-tailed t-test. In all experiments I-AniI was co-expressed with mTagBFP (BFP) and GFP+ and mCherry+ frequencies among BFP+ cells are shown.
Damage to the transcribed strand is preferentially detected and repaired in transcription-coupled nucleotide excision repair (16), and transcribed strand nicks can arrest transcriptional elongation in human cell extracts (17). […]

| Molecule | frequency of HDR at a DSB (Flp-In T-REx-293 cells) | reduction of HDR at a DSB by a dsDNA donor (293T-TL7TP cells; dsDNA donor) | reduction of HDR at a DSB by ssDNA donors (293T-TL7TP cells; ssDNA donors) |
| --- | --- | --- | --- |
| C[C@H]1c2cccc(O)c2C(=O)C2=C(O)[C@]3(O)C(=O)C(C(N)=O)=C(O)[C@@H](N(C)C)[C@@H]3[C@@H](O)[C@@H]21 [doxycycline] | did not affect |  |  |
| RAD51K133R: dominant negative RAD51 mutant which does not hydrolyze ATP, transiently expressed from pCMV-RAD51K133R-T2A-IFP-1.4 (protein, UniProt Q06609 2-339, looked up, variant K133R, T2A-IFP1.4 coexpression) DNA repair protein RAD51 …: AMQMQLEANADTSVEEESFGPQPISRLEQCGINANDVKKLEEAGFHTVEAVAYAPKKELINIKGISEAKADKILAEAAKLVPMGFTTATEFHQRRSEIIQITTGSKELDKLLQGGIETGSITEMFGEFRTGRTQICHTLAVTCQLPIDRGGGEGKAMYIDTEGTFRPERLLAVAERYGLSGSDVLDNVAYARAFNTDHQTQLLYQASAMMVESRYALLIVDSATALYRTDYSGRGELSARQMHLARFLRMLLRLADEFGVAVVITNQVVAQVDGAAMFAADPKKPIGGNIIAHASTTRLYLRKGRGETRICKIYDSPCLPEAEAMFAINADGVGDAKD |  | more than 10 fold | ≤ 2 fold |

Reference: patent publication US20160040155A1, “ACTIVATING AN ALTERNATIVE PATHWAY FOR HOMOLOGY-DIRECTED REPAIR TO STIMULATE TARGETED GENE CORRECTION AND GENOME ENGINEERING” (UNIVERSITY OF WASHINGTON THROUGH ITS CENTER FOR …, priority 2013, published 2016)
